According to article PMC6619604:
These are yes or no findings as the source states them, for the method shown. In cells and extracts the contact can be indirect. Some results given as binding are weak or reduced against the parent protein; the word gives no strength. Where a sequence is shown, tags or fusion partners need not be part of it. Blank lines part the entries; values can stand above or below the binder they belong to.

Sequences of proteins named here, by UniProt entry; tags and fusion partners are left off. Residues count along the entry.
UniProt P28799, residues 18-593: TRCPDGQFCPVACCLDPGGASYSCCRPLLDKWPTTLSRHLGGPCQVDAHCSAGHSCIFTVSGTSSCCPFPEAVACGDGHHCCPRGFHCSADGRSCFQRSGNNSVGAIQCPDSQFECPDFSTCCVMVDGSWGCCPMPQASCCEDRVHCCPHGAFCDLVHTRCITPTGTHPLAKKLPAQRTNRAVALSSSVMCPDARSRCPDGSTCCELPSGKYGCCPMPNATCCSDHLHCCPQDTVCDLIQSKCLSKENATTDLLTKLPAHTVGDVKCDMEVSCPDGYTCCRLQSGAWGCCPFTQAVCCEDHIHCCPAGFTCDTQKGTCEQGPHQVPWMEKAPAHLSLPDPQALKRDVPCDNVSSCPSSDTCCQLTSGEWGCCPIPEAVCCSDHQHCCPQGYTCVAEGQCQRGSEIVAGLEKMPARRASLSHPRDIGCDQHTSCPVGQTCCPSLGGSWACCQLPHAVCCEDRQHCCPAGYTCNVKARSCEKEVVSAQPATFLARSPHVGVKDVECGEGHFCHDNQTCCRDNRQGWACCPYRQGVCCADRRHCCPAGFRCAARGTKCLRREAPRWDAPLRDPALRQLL

Assays:
[1] = target: FLAG-human PGRN (progranulin) (human) (UniProt P28799); test: co-IP; HEK293T cells co-transfected; anti-PGRN immunoprecipitation from lysate; 150 mM NaCl, 50 mM Tris pH 7.5, 1% Triton X-100, 0.1% deoxycholic acid, 4°C
[2] = target: FLAG-human PGRN (progranulin) (human) (UniProt P28799); test: co-IP; HEK293T cells co-transfected; anti-PGRN immunoprecipitation from lysate; 150 mM NaCl, 50 mM sodium acetate pH 5.3, 1% Triton X-100, 0.1% deoxycholic acid, 4°C
[3] = target: T1, FLAG-mPGRN (mouse progranulin) (mouse) (UniProt P28798); test: co-IP; HEK293T cells transfected with mGBA-FLAG-myc and FLAG-mPGRN; anti-myc (A) or anti-PGRN (B) immunoprecipitation, Western blot
T1 sequence: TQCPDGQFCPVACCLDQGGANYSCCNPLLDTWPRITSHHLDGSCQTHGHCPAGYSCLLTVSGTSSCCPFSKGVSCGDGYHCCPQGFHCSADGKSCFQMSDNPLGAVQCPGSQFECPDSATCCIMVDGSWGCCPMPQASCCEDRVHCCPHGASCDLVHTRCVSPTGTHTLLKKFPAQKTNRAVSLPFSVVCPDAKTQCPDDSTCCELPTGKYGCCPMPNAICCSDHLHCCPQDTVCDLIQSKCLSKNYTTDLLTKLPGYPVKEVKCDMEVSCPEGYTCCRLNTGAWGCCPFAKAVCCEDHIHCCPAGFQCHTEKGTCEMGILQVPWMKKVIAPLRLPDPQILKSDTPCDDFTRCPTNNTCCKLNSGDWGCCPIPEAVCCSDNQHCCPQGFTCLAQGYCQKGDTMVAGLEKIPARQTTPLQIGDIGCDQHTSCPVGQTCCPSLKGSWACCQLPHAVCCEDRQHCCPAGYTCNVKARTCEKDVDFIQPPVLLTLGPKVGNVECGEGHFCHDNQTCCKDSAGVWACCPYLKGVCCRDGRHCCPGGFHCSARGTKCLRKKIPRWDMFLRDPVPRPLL

- binding [1]: binds
- binding [2]: binds
B1: human GBA with a C-terminal myc tag (glucocerebrosidase, GCase) (enzyme, UniProt P04062 40-536)
chain: ARPCIPKSFGYSSVVCVCNATYCDSFDPPTFPALGTFSRYESTRSGRRMELSMGPIQANHTGTGLLLTLQPEQKFQKVKGFGGAMTDAAALNILALSPPAQNLLLKSYFSEEGIGYNIIRVPMASCDFSIRTYTYADTPDDFQLHNFSLPEEDTKLKIPLIHRALQLAQRPVSLLASPWTSPTWLKTNGAVNGKGSLKGQPGDIYHQTWARYFVKFLDAYAEHKLQFWAVTAENEPSAGLLSGYPFQCLGFTPEHQRDFIARDLGPTLANSTHHNVRLLMLDDQRLLLPHWAKVVLTDPEAAKYVHGIAVHWYLDFLAPAKATLGETHRLFPNTMLFASEACVGSKFWEQSVRLGSWDRGMQYSHSIITNLLYHVVGWTDWNLALNPEGGPNWVRNFVDSPIIVDITKDTFYKQPMFYHLGHFSKFIPEGSQRVGLVASQKNDLDAVALMHPDGSAVVVVLNRSSKDVPLTIKDPAVGFLETISPGYSIHTYLWRRQ

- binding [3]: binds
B2: mGBA-FLAG-myc (mouse GBA with C-terminal FLAG myc tag) (enzyme, UniProt P17439 20-515)
chain: AQPCIPKSFGYSSVVCVCNASYCDSLDPVTLPALGTFSRYESTRRGRRMELSVGAIQANRTGTGLLLTLQPEKKFQKVKGFGGAMTDATALNILALSPPTQKLLLRSYFSTNGIEYNIIRVPMASCDFSIRVYTYADTPNDFQLSNFSLPEEDTKLKIPLIHQALKMSSRPISLFASPWTSPTWLKTNGRVNGKGSLKGQPGDIFHQTWANYFVKFLDAYAKYGLRFWAVTAENEPTAGLFTGYPFQCLGFTPEHQRDFISRDLGPALANSSHDVKLLMLDDQRLLLPRWAEVVLSDPEAAKYVHGIAVHWYMDFLAPAKATLGETHRLFPNTMLFASEACVGSKFWEQSVRLGSWDRGMQYSHSIITNLLYHVTGWTDWNLALNPEGGPNWVRNFVDSPIIVDIPKDAFYKQPMFYHLGHFSKFIPEGSQRVALVASESTDLETVALLRPDGSAVVVVLNRSSEDVPLTISDPDLGFLETVSPGYSIHTYLWRRQ
